This is one part of the list.
The sequences below were run against T1, OsSMF1 (Oryza sativa, UniProt Q6ZLB0 1-436) (assay: protein-binding microarray (RPBM); PBS, 2% BSA, 51.3 ng/ul salmon testes DNA, 50 uM zinc acetate, 200 nM TF, 25 C, 1 h; high values mean tight binding). Settings: protein: recombinant; tags: N-terminal polyhistidine and DsRed monomer fusion (pET32a); chain copies: 2; label: CyDye5-dUTP incorporated in the synthesized complementary strand; 3' TTTTT single-stranded linker to array surface; dsDNA, one strand shown.
T1 sequence: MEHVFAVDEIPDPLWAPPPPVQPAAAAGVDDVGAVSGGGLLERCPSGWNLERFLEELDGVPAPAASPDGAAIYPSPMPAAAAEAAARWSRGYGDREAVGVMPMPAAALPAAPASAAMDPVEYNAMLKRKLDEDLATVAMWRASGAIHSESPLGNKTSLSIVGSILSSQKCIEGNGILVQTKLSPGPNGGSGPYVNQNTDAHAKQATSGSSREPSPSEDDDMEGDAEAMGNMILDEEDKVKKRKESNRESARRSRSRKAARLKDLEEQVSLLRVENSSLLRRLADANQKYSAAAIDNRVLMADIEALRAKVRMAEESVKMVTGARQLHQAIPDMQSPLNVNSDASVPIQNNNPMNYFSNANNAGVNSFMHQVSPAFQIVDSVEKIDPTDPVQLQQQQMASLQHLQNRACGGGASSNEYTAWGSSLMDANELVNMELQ
Method in brief: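 A custom Agilent array was converted to double-stranded form by primer extension with Cy5-dUTP and blocked with 2% BSA. Protein at 200 nM in PBS with 2% BSA, salmon testes DNA and 50 µM zinc acetate was applied for 1 h at 25 °C, followed by washing. The proteins were polyhistidine–DsRed N-terminal fusions of transcription factors, expressed in E. coli BL21-CodonPlus and Ni–NTA-purified. The binding signal is per-feature fluorescence intensity (arbitrary units) from an Axon 4000B scanner.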
With “TGTTAGCTGATTAGGATGCCACGTCAGCTAAACCAGCTATCGGAGTCACCTAGTGCAG” the binding signal was 23700 fluorescence intensity (a.u.).
For “AAATGAAATTCGGAGGCACAATCATCAATTGTCATTGACTCGGAGTCACCTAGTGCAG”, the binding signal was 3720 fluorescence intensity (a.u.).
For “TCCGGTGATCTCCGCGTGTCAGCATTCAGCAACACAGCGACGGAGTCACCTAGTGCAG”, the binding signal was 5630 fluorescence intensity (a.u.).
In the case of “ATAAAATTGCCACGTAAGTAATTTTATCAGACTAACCAACCGGAGTCACCTAGTGCAG”, the binding signal is reported as 19200 fluorescence intensity (a.u.).
“GGATCAAATTGCCACGTAAGCGCCCACATCGGTGCCATGTCGGAGTCACCTAGTGCAG” was tested, and the binding signal was 31700 fluorescence intensity (a.u.).
“TTTACATGTTCTTGATGACTCTGGCGTTTCCTGCTTTCGACGGAGTCACCTAGTGCAG” was tested, and the binding signal was 3920 fluorescence intensity (a.u.).
With “GAGGGTTTTAATTACTCACTGACATGTAGGGTCACGGGGTCGGAGTCACCTAGTGCAG” the binding signal was 4390 fluorescence intensity (a.u.).
In the case of “AAAGTACCAACGCTCTGGCCCACACGTCACTGGTCGGTTGCGGAGTCACCTAGTGCAG”, the binding signal is reported as 11900 fluorescence intensity (a.u.).
“TTCTCCTAACATCGGTAATTCACTGTGCCAGTGTTATCGCCGGAGTCACCTAGTGCAG” was tested, and the binding signal was 20900 fluorescence intensity (a.u.).
In the case of “CTTAGACTTTATCCGCCAGCTCATCAGACCCATAAGCCCACGGAGTCACCTAGTGCAG”, the binding signal is reported as 11700 fluorescence intensity (a.u.).
“AGGCCGGGGAAGGAGTTCGTGCTCCATTTGTGCGTCACCCCGGAGTCACCTAGTGCAG” was tested, and the binding signal was 4690 fluorescence intensity (a.u.).
For “TTGAAGTTACACTCACTGTACAACGGAGGCCCTTCCCCTTCGGAGTCACCTAGTGCAG”, the binding signal was 3140 fluorescence intensity (a.u.).
With “TTTGTACTGCCAACTGTGCATAGTATGACAGCTACTCTTGCGGAGTCACCTAGTGCAG” the binding signal was 5800 fluorescence intensity (a.u.).
For “CAAATTGTCACATAAGCGCCACGTCATTGCCACAGGGCAGCGGAGTCACCTAGTGCAG”, the binding signal was 35400 fluorescence intensity (a.u.).
For “CTACCCTATGAAGAAGGGTTTTGCTTCTTGCCTTTTCATGCGGAGTCACCTAGTGCAG”, the binding signal was 16400 fluorescence intensity (a.u.).
With “TCACATTGTACAATCACCTAGAAATTTGCTCACTTCCATGCGGAGTCACCTAGTGCAG” the binding signal was 3360 fluorescence intensity (a.u.).
“CAGTATCCTAATATTGTAGTAGACACCTCAGTGGAGCCTGCGGAGTCACCTAGTGCAG” was tested, and the binding signal was 3300 fluorescence intensity (a.u.).
For “GACGCGGCGTCGGCGCCCACCGCGGACGGCGCGGCGGCAGCGGAGTCACCTAGTGCAG”, the binding signal was 31100 fluorescence intensity (a.u.).
With “GTGGCTTACTGGCAATTGTGCACATCATCAACAGTGTGGACGGAGTCACCTAGTGCAG” the binding signal was 4140 fluorescence intensity (a.u.).
For “ACACTCCAGCATAGTTAATGTTTACTGCTAGGAGGATTCACGGAGTCACCTAGTGCAG”, the binding signal was 25600 fluorescence intensity (a.u.).
For “CCATAATGGTCAAACGTGACTCCTCCTCATCTTCTTCCTCCGGAGTCACCTAGTGCAG”, the binding signal was 5970 fluorescence intensity (a.u.).
In the case of “AGTAAAAGGAGCCACGTAGGCGCCACGTCATCCAAAACCACGGAGTCACCTAGTGCAG”, the binding signal is reported as 47600 fluorescence intensity (a.u.).
In the case of “CAACATCCCTGGCGTCGCCGCGTGTACGCAGCCGCCATCACGGAGTCACCTAGTGCAG”, the binding signal is reported as 3930 fluorescence intensity (a.u.).
With “TGTGCCCAGTGACCATATGCTGATGCAGGCTATAAACTTTCGGAGTCACCTAGTGCAG” the binding signal was 4290 fluorescence intensity (a.u.).
With “CAGAGGCGGCGACGACGCGGCGGGCGATGACGCAGAAGGCCGGAGTCACCTAGTGCAG” the binding signal was 3480 fluorescence intensity (a.u.).
With “GGGTCGGGCCATGTATGCGCTGTAGTCAACGGCCCGTACGCGGAGTCACCTAGTGCAG” the binding signal was 3140 fluorescence intensity (a.u.).
With “TCAGCTGCGTCACCCGAGTCCTCCACTCGTCTCCGCTATTCGGAGTCACCTAGTGCAG” the binding signal was 5650 fluorescence intensity (a.u.).
For “GCAACACACGTACACATCACATCTCTCGATTGGCTTCCTTCGGAGTCACCTAGTGCAG”, the binding signal was 5790 fluorescence intensity (a.u.).
In the case of “GCGAGACCTGGCGTTCGACGCTGACGACGTGCTGGACGAGCGGAGTCACCTAGTGCAG”, the binding signal is reported as 4610 fluorescence intensity (a.u.).
For “CTAAAGCATATGAACACTCTTGATTACGTCAACTCCTACTCGGAGTCACCTAGTGCAG”, the binding signal was 3180 fluorescence intensity (a.u.).
With “AACCAGGACTAGCGTAGCGTGCGCTGACCCACTGTCACCGCGGAGTCACCTAGTGCAG” the binding signal was 3970 fluorescence intensity (a.u.).
“TCCCTGGACCCAACGAGACGGCCACGCATGCAATTGCAGCCGGAGTCACCTAGTGCAG” was tested, and the binding signal was 7640 fluorescence intensity (a.u.).
For “CTAGTAGAGTATGAGTTGGTTAACGTGACCGAGTAATTGTCGGAGTCACCTAGTGCAG”, the binding signal was 3270 fluorescence intensity (a.u.).
For “TATAATTTATCTAATTAAGGTCTTTGAAAACATGCTGTGACGGAGTCACCTAGTGCAG”, the binding signal was 6950 fluorescence intensity (a.u.).
With “CTCCCCGCCGGAACCACCTCATCACTGCCGCATCCCCTCCCGGAGTCACCTAGTGCAG” the binding signal was 4340 fluorescence intensity (a.u.).
In the case of “CGGCAGCTGCGAAGCCGCCATGCGCAACAAGGCGGACTACCGGAGTCACCTAGTGCAG”, the binding signal is reported as 20000 fluorescence intensity (a.u.).
In the case of “AGAGGAGGGAGGAGGAGGGATGGGGATGGAAGAAGGTGTTCGGAGTCACCTAGTGCAG”, the binding signal is reported as 3820 fluorescence intensity (a.u.).
In the case of “TGCGTGGTGGTGTTGGTTGATGCAAAATGTGGCAGGGCCACGGAGTCACCTAGTGCAG”, the binding signal is reported as 3170 fluorescence intensity (a.u.).
With “GTGGTTCCCAACGTCGTCGGCTCGTTCTCCTCCACCTCACCGGAGTCACCTAGTGCAG” the binding signal was 3240 fluorescence intensity (a.u.).
With “CTTGCCCTCGCTTGCACGTCACCCGTAAAACGCACCGCACCGGAGTCACCTAGTGCAG” the binding signal was 8580 fluorescence intensity (a.u.).
With “GTCGCGAAGTTCTCCTCGATCTTCTCCTCTGGAACCGCCTCGGAGTCACCTAGTGCAG” the binding signal was 3210 fluorescence intensity (a.u.).
“GTTACACAATTCTACACTGGTCATACAAGGCAGCACTATCCGGAGTCACCTAGTGCAG” was tested, and the binding signal was 32100 fluorescence intensity (a.u.).
In the case of “GTTCGTGCCGCGCACTCATGCCATGCATGCCGTTTGCCGTCGGAGTCACCTAGTGCAG”, the binding signal is reported as 3210 fluorescence intensity (a.u.).
For “CGTAAGACATAGAAGTTCCACACGTAAGTCAGGGCATCAACGGAGTCACCTAGTGCAG”, the binding signal was 3580 fluorescence intensity (a.u.).
With “CACGGTAGAAGAGGAGTAGTAGTTGTCACGTTGGCACGCACGGAGTCACCTAGTGCAG” the binding signal was 4590 fluorescence intensity (a.u.).
“CTAAATCCGAATACGTCAAATTGATACCCGCTTTTACAGCCGGAGTCACCTAGTGCAG” was tested, and the binding signal was 4060 fluorescence intensity (a.u.).
With “GACCGTGCCCAAGCCACGCATGTGTAGGAGTGGGATGACGCGGAGTCACCTAGTGCAG” the binding signal was 4420 fluorescence intensity (a.u.).
For “TGCCTGCCGGCGGGGTCAGATTATTGACGTTAATGGACGCCGGAGTCACCTAGTGCAG”, the binding signal was 3680 fluorescence intensity (a.u.).
“CCAAAATGAGTTGAAATGAATTTTGTATGCATTTTATAAACGGAGTCACCTAGTGCAG” was tested, and the binding signal was 6000 fluorescence intensity (a.u.).
“CCTCGATCGACAACTCCGACGTATTTCCCTGCAGATATACCGGAGTCACCTAGTGCAG” was tested, and the binding signal was 3150 fluorescence intensity (a.u.).
In the case of “CCCGCCCACGGGATCTCTCGCTGACTCGGACGACGACATCCGGAGTCACCTAGTGCAG”, the binding signal is reported as 8930 fluorescence intensity (a.u.).
With “CGTGCCCTCACCACTCACCACCACGTCGTCTCCCGGCGACCGGAGTCACCTAGTGCAG” the binding signal was 5300 fluorescence intensity (a.u.).
In the case of “ACGGTCAAATAGCCGTTAGTGCCACGTGGCGCCTTCCCATCGGAGTCACCTAGTGCAG”, the binding signal is reported as 32100 fluorescence intensity (a.u.).
In the case of “TTAGACCCCTGAACCGGCGTCTCCCGTCAGCCAGCCTTCGCGGAGTCACCTAGTGCAG”, the binding signal is reported as 3280 fluorescence intensity (a.u.).

Reference: PMC7819943, “Rice protein-binding microarrays: a tool to detect cis-acting elements near promoter regions in rice”
